Measured data: PubChem BioAssay AID504764 (Drosophila RNAi Screening Center, 2011)
The deposit covers about 22,000 reagents; shown is a random part of those that have a named target and a result. Over the whole deposit, 403 (1.9%) were called active. 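Unnormalised raw counts per well; ratio z-scores behind the hit calls and whether each hit raises or lowers signal are not deposited.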 No sequences are given here. Not given: the amount of reagent.

Purpose: 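Genes whose knock-down alters Notch-dependent transcription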 (primary screen)
Cells: Drosophila Kc167 cells
Reagents: long dsRNA against Drosophila genes
Time to read-out: about 5 days (4 days dsRNA, then 24 h after transfection)
Conditions: transfection of constitutively active membrane-tethered Notch lacking the extracellular domain, read 24 h later
Measured: 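Firefly luciferase from an E(spl)m3 reporter with active Notch, plus control-promoter and uninduced reporter wells for normalisation; unnormalised counts, duplicate wells a and b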
Direction: induced reporter light, run 1, well a and induced reporter light, run 1, well b: higher = more light from the Notch target reporter with active Notch; control promoter light, run 1, well a and control promoter light, run 1, well b: higher = more light from the viral control promoter (cell number, transfection, viability); uninduced reporter light, run 1, well a: higher = more light from the Notch target reporter without active Notch
Active means: 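Hit if the duplicate-averaged log2 ratio of induced to control-promoter light gives a plate-wise z beyond ±2, or induced to uninduced beyond ±1.8; weak-control or discordant-duplicate wells dropped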
Meaning of the calls: active = modifier hit (raised or lowered Notch signal); inactive = not a hit

gene | PubChem SID | induced reporter light, run 1, well a | induced reporter light, run 1, well b | control promoter light, run 1, well a | control promoter light, run 1, well b | uninduced reporter light, run 1, well a | outcome
IntS3 (Integrator 3) | SID104201007 | 75450 | 67355 | 57395 | 63110 | 10790 | active
CG32813 | SID104197740 | 1.25e5 | 1.21e5 | 2.28e5 | 2.06e5 | 9610 | inactive
CG15025 | SID104194823 | 1.87e5 | 1.56e5 | 1.94e5 | 1.91e5 | 12192 | inactive
fz2 (frizzled 2) | SID104189387 | 2.50e5 | 2.69e5 | 2.95e5 | 3.32e5 | 18445 | inactive
fz2 (frizzled 2) | SID104189879 | 34150 | 34500 | 18700 | 18175 | 5350 | inactive
fz2 (frizzled 2) | SID104191141 | 89175 | 85240 | 89165 | 92085 | 5565 | inactive
ebi | SID104180608 | 1.96e5 | 2.34e5 | 2.10e5 | 2.14e5 | 21335 | inactive
CG5515 | SID104195617 | 1.69e5 | 1.80e5 | 2.24e5 | 2.01e5 | 12200 | inactive
BNIP3 | SID104191553 | 1.62e5 | 1.39e5 | 1.20e5 | 1.36e5 | 8255 | inactive
ZnT86D (Zinc transporter 86D) | SID104195883 | 86700 | 1.06e5 | 1.08e5 | 77780 | 7040 | inactive
Osi7 (Osiris 7) | SID104191968 | 55515 | 90160 | 68910 | 55855 | 5532 | inactive
RpL39 (Ribosomal protein L39) | SID104184443 | 1.53e5 | 1.32e5 | 1.37e5 | 1.28e5 | 10530 | inactive
CG10151 | SID104185766 | 73265 | 66085 | 52590 | 61245 | 7755 | inactive
ftz-f1 (ftz transcription factor 1) | SID104191139 | 1.41e5 | 1.13e5 | 1.47e5 | 1.60e5 | 6642 | inactive
Arpc2 (Actin-related protein 2/3 complex, subunit 2) | SID104181905 | 2.55e5 | 2.65e5 | 2.22e5 | 2.26e5 | 16825 | inactive
CG15525 | SID104194854 | 1.09e5 | 1.05e5 | 1.55e5 | 1.93e5 | 10995 | inactive
CG7992 | SID104199862 | 87750 | 1.03e5 | 1.21e5 | 1.16e5 | 11700 | inactive
Sol1 | SID104195055 | 1.29e5 | 1.15e5 | 1.07e5 | 66585 | 9165 | inactive
Sol1 | SID104195063 | 97100 | 86440 | 87540 | 64970 | 5990 | inactive
Sol1 | SID104195473 | 83125 | 83055 | 74325 | 64105 | 5195 | inactive
CG1239 | SID104191996 | 1.33e5 | 1.70e5 | 95530 | 97495 | 11335 | inactive
mex1 (midgut expression 1) | SID104191160 | 2.09e5 | 2.16e5 | 2.52e5 | 2.24e5 | 15735 | inactive
CG7488 | SID104196042 | 3.22e5 | 3.39e5 | 2.82e5 | 2.83e5 | 25080 | inactive
CG3457 | SID104198301 | 2.19e5 | 2.28e5 | 3.31e5 | 3.38e5 | 15415 | inactive
CG14739 | SID104194751 | 55310 | 70580 | 52460 | 54450 | 2670 | inactive
Ir68b (Ionotropic receptor 68b) | SID104190043 | 1.71e5 | 1.34e5 | 1.88e5 | 1.60e5 | 7565 | inactive
CG42268 | SID104189963 | 1.44e5 | 1.19e5 | 1.70e5 | 1.65e5 | 7690 | inactive
CG42268 | SID104190494 | 1.60e5 | 1.46e5 | 2.24e5 | 1.63e5 | 7515 | inactive
CG12964 | SID104186058 | 16955 | 14380 | 17240 | 16635 | 4850 | inactive
CG7632 | SID104191634 | 99080 | 1.05e5 | 77685 | 64690 | 5630 | inactive
CG16826 | SID104182319 | 1.54e5 | 1.55e5 | 1.96e5 | 2.18e5 | 17245 | inactive
rdog (red dog mine) | SID104194223 | 1.89e5 | 2.27e5 | 2.46e5 | 2.91e5 | 15570 | inactive
CG14414 | SID104199391 | 1.21e5 | 1.05e5 | 96405 | 1.28e5 | 13240 | inactive
Prx3 (Peroxiredoxin 3) | SID104195675 | 1.19e5 | 1.51e5 | 1.37e5 | 1.65e5 | 14730 | inactive
Uxs (UDP-xylose synthase) | SID104190733 | 63130 | 46130 | 40735 | 21032 | 5145 | inactive
CG8508 | SID104196228 | 1.32e5 | 1.47e5 | 90365 | 93325 | 9265 | inactive
CycA (Cyclin A) | SID104188924 | 59005 | 78595 | 73905 | 1.01e5 | 6278 | inactive
CycA (Cyclin A) | SID104190915 | 40480 | 28305 | 21165 | 12880 | 3055 | inactive
Zw (Zwischenferment) | SID104200095 | 1.04e5 | 1.19e5 | 91780 | 44570 | 8685 | inactive
SK (small conductance calcium-activated potassium channel) | SID104197179 | 90495 | 93750 | 95020 | 86215 | 6495 | inactive
SK (small conductance calcium-activated potassium channel) | SID104197543 | 2.11e5 | 1.84e5 | 3.20e5 | 3.35e5 | 14032 | inactive
SK (small conductance calcium-activated potassium channel) | SID104197679 | 1.74e5 | 1.55e5 | 3.38e5 | 2.43e5 | 11730 | inactive
SK (small conductance calcium-activated potassium channel) | SID104197680 | 1.31e5 | 1.42e5 | 2.69e5 | 2.17e5 | 10880 | inactive
SK (small conductance calcium-activated potassium channel) | SID104198145 | 2.23e5 | 1.87e5 | 2.65e5 | 2.20e5 | 15230 | inactive
IntS4 (Integrator 4) | SID104197602 | 1.47e5 | 1.51e5 | 1.36e5 | 1.50e5 | 16042 | inactive
Roc2 (Regulator of cullins 2) | SID104187105 | 1.18e5 | 1.18e5 | 1.48e5 | 1.37e5 | 9655 | inactive
aurA (aurora A) | SID104196697 | 83950 | 1.04e5 | 1.04e5 | 63005 | 5770 | inactive
Arp6 (Actin-related protein 6) | SID104199118 | 1.42e5 | 1.41e5 | 1.74e5 | 2.03e5 | 9825 | inactive
Ube3a (Ubiquitin protein ligase E3A) | SID104190392 | 1.09e5 | 87070 | 62020 | 24280 | 6770 | inactive
CR32028 (retired record) | SID104202316 | – | – | – | – | – | inactive

Looked up above:
For “control promoter light, run 1, well a”, ZnT86D (Zinc transporter 86D) [SID104195883] has 1.08e5
For “control promoter light, run 1, well a”, Arp6 (Actin-related protein 6) [SID104199118] reads 1.74e5
Entry for SK (small conductance calcium-activated potassium channel) [SID104198145] under “induced reporter light, run 1, well b”: 1.87e5
Under “control promoter light, run 1, well b”, IntS4 (Integrator 4) [SID104197602] is entered as 1.50e5
fz2 (frizzled 2) [SID104189879], uninduced reporter light, run 1, well a → 5350
Result for ebi [SID104180608] under “control promoter light, run 1, well b”: 2.14e5
